Where a SMILES comes first, the peptide text is derived from it. Where no end group is shown, it is not given here. [ ]: non-standard residue; d: D form. Orn = NCCC[C@H](N)C(=O)O
Test system: bacteria versus human red blood cell
Conditions: 256 μM used for MHC5 when no hemolysis at 128 μM
Protocol: To investigate the cell selectivity of novel antimicrobials, the total selectivity index (TSI) was calculated as the ratio of the minimal hemolysis concentration (MHC) to the geometric mean (GM) of the MIC values (Table 2).

Q: Which results are given for `CC[C@H](C)[C@H](N)C(=O)N[C@@H](CCCNC(=N)N)C(=O)N1CCC[C@@H]1C(=O)N[C@H](C(=O)N[C@@H](CCCNC(=N)N)C(=O)N1CCC[C@@H]1C(=O)O)[C@@H](C)CC` [DIR1] (H-IR[dP]IR[dP]-OH)?
A: nSI (–), selectivity index MHC5/GM (−): 1.0; pSI (+), selectivity index MHC5/GM(+): 1.0; tSI, total selectivity index MHC5/TGM: 1.0

Q: Which results are given for `CC[C@H](C)[C@H](N)C(=O)N[C@@H](CCCNC(=N)N)C(=O)N[C@H](C(=O)N[C@@H](CCCNC(=N)N)C(=O)N1CCC[C@@H]1C(=O)N[C@H](C(=O)N[C@@H](CCCNC(=N)N)C(=O)N[C@H](C(=O)N[C@@H](CCCNC(=N)N)C(=O)N1CCC[C@@H]1C(=O)O)[C@@H](C)CC)[C@@H](C)CC)[C@@H](C)CC` [DIR2] (H-IRIR[dP]IRIR[dP]-OH)?
A: nSI (–), selectivity index MHC5/GM (−): 1.3; pSI (+), selectivity index MHC5/GM(+): 1.0; tSI, total selectivity index MHC5/TGM: 1.2

Q: Which results are given for `CC(C)C[C@@H]1NC(=O)[C@H](CCCN)NC(=O)[C@H](C(C)C)NC(=O)[C@@H]2CCCN2C(=O)[C@@H](Cc2ccccc2)NC(=O)[C@H](CC(C)C)NC(=O)[C@H](CCCN)NC(=O)[C@H](C(C)C)NC(=O)[C@@H]2CCCN2C(=O)[C@@H](Cc2ccccc2)NC1=O` [GS, gramicidin S, reference compound] (cyclo(V[Orn]L[dF]PV[Orn]L[dF]P))?
A: nSI (–), selectivity index MHC5/GM (−): 1.3; pSI (+), selectivity index MHC5/GM(+): 4.0; tSI, total selectivity index MHC5/TGM: 2.2

Q: With `CC[C@H](C)[C@@H]1NC(=O)[C@@H]2CCCN2C(=O)[C@H](CCCNC(=N)N)NC(=O)[C@H]([C@@H](C)CC)NC(=O)[C@@H]2CCCN2C(=O)[C@H](CCCNC(=N)N)NC1=O` [OIR1] (cyclo(IRPIRP)) as the compound, how does the “nSI (–), selectivity index MHC5/GM (−)” value read?
A: 1.0

Q: And the “pSI (+), selectivity index MHC5/GM(+)” value?
A: 1.0

Q: And the “tSI, total selectivity index MHC5/TGM” value?
A: 1.0

Q: `CC[C@H](C)[C@@H]1NC(=O)[C@H](CCCNC(=N)N)NC(=O)[C@H]([C@@H](C)CC)NC(=O)[C@@H]2CCCN2C(=O)[C@H](CCCNC(=N)N)NC(=O)[C@H]([C@@H](C)CC)NC(=O)[C@H](CCCNC(=N)N)NC(=O)[C@H]([C@@H](C)CC)NC(=O)[C@@H]2CCCN2C(=O)[C@H](CCCNC(=N)N)NC1=O` [OIR2] (cyclo(IRIRPIRIRP)) was tested. Which “nSI (–), selectivity index MHC5/GM (−)” value did it give?
A: 1.7

Q: And the “pSI (+), selectivity index MHC5/GM(+)” value?
A: 1.0

Q: What about the “tSI, total selectivity index MHC5/TGM” value of the same compound?
A: 1.4

Q: How did the “nSI (–), selectivity index MHC5/GM (−)” value turn out when `CC[C@H](C)[C@@H]1NC(=O)[C@H](CCCNC(=N)N)NC(=O)[C@H]([C@@H](C)CC)NC(=O)[C@@H]2CCCN2C(=O)[C@H](CCCNC(=N)N)NC(=O)[C@H]([C@@H](C)CC)NC(=O)[C@H](CCCNC(=N)N)NC(=O)[C@H]([C@@H](C)CC)NC(=O)[C@H](CCCNC(=N)N)NC(=O)[C@H]([C@@H](C)CC)NC(=O)[C@@H]2CCCN2C(=O)[C@H](CCCNC(=N)N)NC(=O)[C@H]([C@@H](C)CC)NC(=O)[C@H](CCCNC(=N)N)NC1=O` [OIR3] (cyclo(IRIRIRPIRIRIRP)) was run?
A: 73.1

Q: What about the “pSI (+), selectivity index MHC5/GM(+)” value of the same compound?
A: 64.0

Q: What about the “tSI, total selectivity index MHC5/TGM” value of the same compound?
A: 69.2

Q: Which “nSI (–), selectivity index MHC5/GM (−)” value does the source give for “Colistin Sulfate [CS, reference compound]” here?
A: 320.0

Q: And the “pSI (+), selectivity index MHC5/GM(+)” value?
A: 3.4

Q: What about the “tSI, total selectivity index MHC5/TGM” value of the same compound?
A: 43.4

Q: With IRIRIRPIRIRIRP [IR3] as the compound, how does the “nSI (–), selectivity index MHC5/GM (−)” value read?
A: 21.2

Q: And the “pSI (+), selectivity index MHC5/GM(+)” value?
A: 2.8

Q: And the “tSI, total selectivity index MHC5/TGM” value?
A: 11.3

Q: IRIRPIRIRP [IR2] was tested. Which “nSI (–), selectivity index MHC5/GM (−)” value did it give?
A: 1.0

Q: What about the “pSI (+), selectivity index MHC5/GM(+)” value of the same compound?
A: 1.0

Q: What about the “tSI, total selectivity index MHC5/TGM” value of the same compound?
A: 1.0

Q: IRPIRP [IR1] was tested. Which “nSI (–), selectivity index MHC5/GM (−)” value did it give?
A: 1.0

Q: And the “pSI (+), selectivity index MHC5/GM(+)” value?
A: 1.0

Q: And the “tSI, total selectivity index MHC5/TGM” value?
A: 1.0
